Values of other authors, collected in US20140194374A1, “Anthelmintic Formulations and Treatments” (VIRBAC, priority 2011, published 2014).
For at least one compound, name, drawing or mass did not settle the structure.

Columns and labels:
Trichostrongylus = settings: oral, sheep; cited from earlier work
Haemonchus = settings: oral, sheep; cited from earlier work

In the case of `CO/N=C1\C[C@]2(C[C@@H]3C[C@@H](C/C=C(\C)C[C@@H](C)/C=C/C=C4\CO[C@@H]5[C@H](O)C(C)=C[C@@H](C(=O)O3)[C@]45O)O2)O[C@H](/C(C)=C/C(C)C)[C@H]1C` [Oral moxidectin, moxidectin], the Persistent activity (Trichostrongylus) is listed as “up to 7 days” and the Persistent activity (Haemonchus) is listed as 35 days.
